The supplement of paper PMC10338343
± gives the standard deviation. The list shows a part of the results, in another mix than the full data. Many entries were measured with a wide error.

These sequences were tested on EfPiwi piRISC loaded with piRNA #1 (26 nt) (assay: pre-steady-state target cleavage rate (min^-1); guide: piRNA #1 5'p-UGAGGUAGUAGGUUGUAUAGUAUCCA; MIWI and MILI are mouse PIWI proteins and EfPiwi is from a freshwater sponge; tags in brackets are library labels; higher = faster piRNA-guided slicing of the target). Conditions: auxiliary factor: 500 nM Ephydatia muelleri Gtsf1.
Procedure, shortened: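 A transcribed, DNA-blocked target RNA library (0.1 nM) and 1 nM active affinity-purified piRISC bearing one synthetic guide were incubated in HEPES–potassium acetate buffer at 33 °C for 0–8 or 0–960 min, either with or without 500 nM GTSF1 partner protein. Uncleaved targets were sequenced, normalised to depth and to weakly complementary targets, and pooled over three trials, with k3 capped at 0.0001 min^-1. The pre-steady-state cleavage rate was derived with a burst-and-steady-state fit.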

Sequence	pre-steady-state target cleavage rate
GGAGACCUAUGUAUACAACCUACUACGUCA	0.00205 ± 0.0044
GGAGACCUAUGAUAUGUUCUCUACUACCUCA	0.000258 ± 0.0095
GGAGUGGAUACUAUAGAACCUAGUACCUCA	0.00157 ± 0.0017
GGAGACCUUACUUUACAACCUACUAGCUCA	0.00253 ± 0.0039
GGAGACGAUACUAUACAACCUAGUACCUCA	0.00506 ± 0.0014
GGAGACCUAUCUAUACAACCUACUAUCUCA	0.00591 ± 0.004
GGAGAGGAUUCUAUUCAACCUACUACCUCA	0.00244 ± 0.005
GGAGACCAUAGUAUACAACCUACUACCACA	0.00262 ± 0.0041
GGAGACGAUACUUUACAACCUACUACCUGA	0.00356 ± 0.0024
GGAGUGGAUACAAUACAACCUAGUACCUCA	0.00305 ± 0.0021
GGAGAGGAUACAAUACAACCUUCUACCUCA	0.00307 ± 0.0023
GGAGACGAUACUAUACAACCUACUGCCUCA	0.00691 ± 0.0024
GGAGUGGAUACUAUACAACCUACUACCUUCA	0.168 ± 0.061
GGAGACGAAACUAAACAACCUACUACCUCA	0.00324 ± 0.0032
GGAGAGGAUACUAUACAUCCUACAACCUCA	0.00339 ± 0.0022
GGAGUGGAUACUAUAGAACCUUCUACCUCA	0.00334 ± 0.0018
GGAGAGGAUACUAUACAACGUACUACCUGA	0.00359 ± 0.0014
GGAGAGGAUACAAUAGAACCUACUACCUCA	0.00186 ± 0.0029
GGAGACCUGACUAUACAACCUACUACCUCA	0.0243 ± 0.01
GGAGACCUUACUAUUCAACCUACAACCUCA	0.000823 ± 0.011
GGAGACCUAUCUAUACAACCUUCUACCUCA	0.00257 ± 0.0038
GGAGUGGAUAGUAUAGAACCUACUACCUCA	0.00129 ± 0.0032
GGAGACCUUACAAUACAACGUACUACCUCA	0.00409 ± 0.004
GGAGACCUAUGUAUACAACCUACUACCCUCA	0.000886 ± 0.0057

Part of the list above in a different format:

| Sequence | pre-steady-state target cleavage rate |
| --- | --- |
| GGAGAGGAUUCUAUUCAACCUACUACCUCA | 0.00244 ± 0.005 |
| GGAGACGAUACUAUACAACCUACUGCCUCA | 0.00691 ± 0.0024 |
